No constants are given. Whether binding was seen depends on the method and setting. Binding seen in cells or lysates may run through a third protein. These calls come from enrichment with a bait or labelling near it, and not all partners need be listed. For some assays here: No binding means not detected with the bait. For some assays here: Tags and fused reporters may be left off the sequences shown. One block for each molecule: values may come before it.
Columns and labels:
[1] = target: FLAG-RitR, wild type (Streptococcus pneumoniae); test: immunoprecipitation, non-reducing SDS-PAGE, anti-FLAG blot and mass spectrometry of the bands; S. pneumoniae cells grown anaerobically; lysis with 10 mM iodoacetamide; M2 FLAG beads
[2] = target: T1, FLAG-RitR, wild type (Streptococcus pneumoniae), A0ACD7; test: immunoprecipitation, non-reducing SDS-PAGE, anti-FLAG blot and mass spectrometry of the bands; S. pneumoniae cells grown aerated or statically in 5% CO2; lysis with 10 mM iodoacetamide; M2 FLAG beads; conditions: remark: other sources report otherwise
T1 chain: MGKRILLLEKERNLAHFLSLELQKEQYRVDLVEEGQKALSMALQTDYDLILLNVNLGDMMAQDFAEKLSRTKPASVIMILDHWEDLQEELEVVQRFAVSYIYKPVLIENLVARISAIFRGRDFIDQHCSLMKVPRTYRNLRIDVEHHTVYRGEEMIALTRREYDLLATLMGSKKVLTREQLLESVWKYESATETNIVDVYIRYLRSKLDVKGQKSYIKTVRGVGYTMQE

Molecule: FLAG-RitR, wild type (from UniProt A0ACD7PPZ9 1-229)
binding [1]: no binding (only cells grown anaerobically)

binding [2]: binds
B1: FLAG-RitR, wild type, A0ACD7PPZ9 1-229 (protein)
chain: T1 chain
